In the supplement of paper PMC12067093, “Discovery and optimisation of a covalent ligand for TRIM25 and its application to targeted protein ubiquitination” (Chemical Science, 2025):
The other results are listed elsewhere or left out.

Sequences of proteins named here, by UniProt entry; tags and fusion partners are left off. A change or cut given only in a name is not applied to a line headed by its entry.
UniProt P40925: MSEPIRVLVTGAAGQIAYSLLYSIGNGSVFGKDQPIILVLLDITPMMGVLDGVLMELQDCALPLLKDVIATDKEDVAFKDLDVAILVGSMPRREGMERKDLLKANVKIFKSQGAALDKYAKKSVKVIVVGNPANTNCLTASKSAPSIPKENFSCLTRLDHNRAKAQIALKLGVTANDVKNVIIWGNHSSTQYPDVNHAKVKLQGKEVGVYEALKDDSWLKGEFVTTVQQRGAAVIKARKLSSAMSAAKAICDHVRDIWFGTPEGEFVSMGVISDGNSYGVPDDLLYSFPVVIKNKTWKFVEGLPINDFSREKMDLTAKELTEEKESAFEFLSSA
UniProt Q9Y316: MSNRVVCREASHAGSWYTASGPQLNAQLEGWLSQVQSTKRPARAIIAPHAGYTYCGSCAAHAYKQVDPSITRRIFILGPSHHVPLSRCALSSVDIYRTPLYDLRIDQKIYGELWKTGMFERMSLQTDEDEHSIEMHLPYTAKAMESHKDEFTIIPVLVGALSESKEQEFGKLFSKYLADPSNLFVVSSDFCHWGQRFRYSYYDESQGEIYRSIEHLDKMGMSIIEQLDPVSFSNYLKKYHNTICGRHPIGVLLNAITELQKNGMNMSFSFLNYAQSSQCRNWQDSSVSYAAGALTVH
UniProt Q8N6R0: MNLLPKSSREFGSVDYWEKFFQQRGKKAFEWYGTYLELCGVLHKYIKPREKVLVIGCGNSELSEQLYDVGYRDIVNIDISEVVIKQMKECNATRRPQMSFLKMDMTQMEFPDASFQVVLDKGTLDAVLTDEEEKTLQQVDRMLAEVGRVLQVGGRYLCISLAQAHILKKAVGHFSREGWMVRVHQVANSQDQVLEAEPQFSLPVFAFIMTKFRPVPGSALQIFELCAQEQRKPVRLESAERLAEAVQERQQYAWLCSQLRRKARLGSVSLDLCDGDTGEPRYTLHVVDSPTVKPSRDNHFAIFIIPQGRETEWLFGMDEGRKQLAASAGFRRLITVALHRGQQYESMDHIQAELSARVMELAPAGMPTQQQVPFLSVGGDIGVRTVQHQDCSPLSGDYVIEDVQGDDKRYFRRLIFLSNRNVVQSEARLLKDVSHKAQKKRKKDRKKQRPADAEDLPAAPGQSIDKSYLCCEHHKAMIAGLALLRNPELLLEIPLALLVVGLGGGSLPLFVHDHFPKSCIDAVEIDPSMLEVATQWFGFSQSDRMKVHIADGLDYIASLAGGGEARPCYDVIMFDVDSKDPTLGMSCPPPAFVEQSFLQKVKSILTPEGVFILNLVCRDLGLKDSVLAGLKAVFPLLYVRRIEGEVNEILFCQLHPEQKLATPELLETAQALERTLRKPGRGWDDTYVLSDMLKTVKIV
UniProt Q8NE86: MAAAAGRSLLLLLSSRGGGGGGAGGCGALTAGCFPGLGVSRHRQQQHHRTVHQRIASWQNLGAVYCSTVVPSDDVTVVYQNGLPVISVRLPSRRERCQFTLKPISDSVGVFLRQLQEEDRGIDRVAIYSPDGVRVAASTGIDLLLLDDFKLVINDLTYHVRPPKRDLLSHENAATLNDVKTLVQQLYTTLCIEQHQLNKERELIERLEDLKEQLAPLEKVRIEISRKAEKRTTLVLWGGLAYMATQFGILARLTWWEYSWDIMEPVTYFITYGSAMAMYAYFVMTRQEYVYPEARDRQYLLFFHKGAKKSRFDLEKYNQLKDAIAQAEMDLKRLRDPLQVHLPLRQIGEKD
UniProt Q6P2C8: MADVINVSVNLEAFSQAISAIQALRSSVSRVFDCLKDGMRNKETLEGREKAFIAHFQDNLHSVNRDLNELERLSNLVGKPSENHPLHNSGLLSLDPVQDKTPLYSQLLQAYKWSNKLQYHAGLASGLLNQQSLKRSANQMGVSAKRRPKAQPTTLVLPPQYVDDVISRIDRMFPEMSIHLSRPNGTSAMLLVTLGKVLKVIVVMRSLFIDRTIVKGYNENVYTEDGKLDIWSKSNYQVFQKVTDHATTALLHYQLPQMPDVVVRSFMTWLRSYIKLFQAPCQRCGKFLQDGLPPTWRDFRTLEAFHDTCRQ
UniProt Q71F56: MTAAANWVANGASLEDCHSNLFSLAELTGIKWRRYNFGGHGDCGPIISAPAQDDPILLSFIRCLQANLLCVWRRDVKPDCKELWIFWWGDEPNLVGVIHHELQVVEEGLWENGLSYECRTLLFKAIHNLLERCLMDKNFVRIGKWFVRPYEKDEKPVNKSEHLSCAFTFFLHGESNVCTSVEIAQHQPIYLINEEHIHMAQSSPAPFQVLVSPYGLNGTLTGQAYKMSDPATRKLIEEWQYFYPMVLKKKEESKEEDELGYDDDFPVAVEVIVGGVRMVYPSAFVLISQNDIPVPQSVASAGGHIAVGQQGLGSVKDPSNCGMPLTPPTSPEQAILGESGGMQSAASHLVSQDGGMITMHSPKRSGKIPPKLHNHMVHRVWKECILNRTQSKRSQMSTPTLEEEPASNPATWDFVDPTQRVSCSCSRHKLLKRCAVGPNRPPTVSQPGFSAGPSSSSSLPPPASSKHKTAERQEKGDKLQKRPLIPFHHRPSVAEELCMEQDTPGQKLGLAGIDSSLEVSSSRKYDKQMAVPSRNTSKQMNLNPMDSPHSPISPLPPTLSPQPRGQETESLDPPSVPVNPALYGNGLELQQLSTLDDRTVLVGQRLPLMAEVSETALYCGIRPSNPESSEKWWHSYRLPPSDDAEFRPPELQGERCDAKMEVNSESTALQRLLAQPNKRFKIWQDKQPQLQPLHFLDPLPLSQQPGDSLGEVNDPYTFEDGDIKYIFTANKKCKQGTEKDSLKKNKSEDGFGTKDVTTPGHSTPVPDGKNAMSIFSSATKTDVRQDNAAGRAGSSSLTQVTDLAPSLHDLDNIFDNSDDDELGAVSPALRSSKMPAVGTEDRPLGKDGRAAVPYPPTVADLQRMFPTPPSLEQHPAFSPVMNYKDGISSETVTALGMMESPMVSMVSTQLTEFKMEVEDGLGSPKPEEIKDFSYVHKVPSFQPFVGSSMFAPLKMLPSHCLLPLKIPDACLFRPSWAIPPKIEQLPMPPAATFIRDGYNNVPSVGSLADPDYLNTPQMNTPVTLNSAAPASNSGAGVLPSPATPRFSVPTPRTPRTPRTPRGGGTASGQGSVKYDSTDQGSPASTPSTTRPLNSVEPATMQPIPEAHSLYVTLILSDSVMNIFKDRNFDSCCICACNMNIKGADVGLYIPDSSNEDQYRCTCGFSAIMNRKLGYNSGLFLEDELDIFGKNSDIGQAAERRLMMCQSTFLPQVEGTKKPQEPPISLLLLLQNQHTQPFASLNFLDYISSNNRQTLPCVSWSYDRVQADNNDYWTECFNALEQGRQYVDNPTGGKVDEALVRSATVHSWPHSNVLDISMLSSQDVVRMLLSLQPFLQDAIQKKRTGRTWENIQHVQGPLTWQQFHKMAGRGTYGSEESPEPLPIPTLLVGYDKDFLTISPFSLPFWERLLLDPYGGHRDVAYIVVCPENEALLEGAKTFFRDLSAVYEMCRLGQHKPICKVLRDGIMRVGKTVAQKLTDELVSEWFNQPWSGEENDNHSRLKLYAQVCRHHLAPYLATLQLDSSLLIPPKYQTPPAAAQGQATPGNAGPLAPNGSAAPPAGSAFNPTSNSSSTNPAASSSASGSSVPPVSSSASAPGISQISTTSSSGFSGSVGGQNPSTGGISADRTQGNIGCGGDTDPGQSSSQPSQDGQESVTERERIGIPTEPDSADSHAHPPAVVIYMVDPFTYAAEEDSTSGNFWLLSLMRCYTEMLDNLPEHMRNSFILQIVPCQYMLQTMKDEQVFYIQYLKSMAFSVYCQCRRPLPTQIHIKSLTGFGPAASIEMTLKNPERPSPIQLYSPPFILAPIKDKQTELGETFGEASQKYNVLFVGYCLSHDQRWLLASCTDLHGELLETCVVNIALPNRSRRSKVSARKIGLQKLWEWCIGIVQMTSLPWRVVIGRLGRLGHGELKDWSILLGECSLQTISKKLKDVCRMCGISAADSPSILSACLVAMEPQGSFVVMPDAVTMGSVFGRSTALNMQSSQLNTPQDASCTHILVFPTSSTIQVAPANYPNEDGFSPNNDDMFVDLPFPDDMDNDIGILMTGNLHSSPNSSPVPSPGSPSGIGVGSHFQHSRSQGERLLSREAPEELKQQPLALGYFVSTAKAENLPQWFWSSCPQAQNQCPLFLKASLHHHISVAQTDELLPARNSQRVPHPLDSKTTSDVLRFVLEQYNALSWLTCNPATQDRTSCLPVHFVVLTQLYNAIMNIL
UniProt P25205: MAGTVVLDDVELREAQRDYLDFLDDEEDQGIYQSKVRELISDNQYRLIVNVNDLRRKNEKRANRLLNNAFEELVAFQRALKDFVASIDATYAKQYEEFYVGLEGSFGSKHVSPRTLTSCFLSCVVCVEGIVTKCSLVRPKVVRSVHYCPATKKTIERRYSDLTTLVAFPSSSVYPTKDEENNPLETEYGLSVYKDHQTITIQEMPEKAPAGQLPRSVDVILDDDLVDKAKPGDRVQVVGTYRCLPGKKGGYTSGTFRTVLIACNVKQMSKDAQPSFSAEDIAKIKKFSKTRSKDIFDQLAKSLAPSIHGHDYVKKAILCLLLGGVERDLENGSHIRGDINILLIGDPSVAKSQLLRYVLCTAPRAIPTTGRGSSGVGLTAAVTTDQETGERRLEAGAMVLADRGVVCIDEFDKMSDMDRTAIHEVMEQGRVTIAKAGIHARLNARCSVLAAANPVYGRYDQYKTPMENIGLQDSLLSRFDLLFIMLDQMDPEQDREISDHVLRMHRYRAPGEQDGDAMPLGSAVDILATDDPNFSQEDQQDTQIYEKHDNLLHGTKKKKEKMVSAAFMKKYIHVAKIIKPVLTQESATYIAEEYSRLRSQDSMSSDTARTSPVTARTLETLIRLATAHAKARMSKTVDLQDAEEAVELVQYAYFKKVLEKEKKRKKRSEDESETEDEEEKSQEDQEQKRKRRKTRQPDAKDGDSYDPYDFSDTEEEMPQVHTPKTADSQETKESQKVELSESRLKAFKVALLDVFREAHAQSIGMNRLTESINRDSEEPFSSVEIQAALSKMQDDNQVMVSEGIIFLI
UniProt P50579: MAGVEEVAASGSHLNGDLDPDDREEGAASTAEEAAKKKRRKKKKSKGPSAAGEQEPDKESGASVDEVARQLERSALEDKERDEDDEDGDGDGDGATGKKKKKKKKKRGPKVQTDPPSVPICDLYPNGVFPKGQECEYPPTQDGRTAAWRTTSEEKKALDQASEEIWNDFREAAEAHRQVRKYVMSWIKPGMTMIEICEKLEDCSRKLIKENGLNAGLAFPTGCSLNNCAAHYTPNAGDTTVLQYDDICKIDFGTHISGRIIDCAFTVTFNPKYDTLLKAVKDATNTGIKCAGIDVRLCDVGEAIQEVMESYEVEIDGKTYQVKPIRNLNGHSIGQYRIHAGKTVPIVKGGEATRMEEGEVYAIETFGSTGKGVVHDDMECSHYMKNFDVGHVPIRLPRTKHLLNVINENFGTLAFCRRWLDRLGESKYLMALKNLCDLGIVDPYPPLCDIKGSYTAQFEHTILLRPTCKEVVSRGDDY
UniProt Q10469: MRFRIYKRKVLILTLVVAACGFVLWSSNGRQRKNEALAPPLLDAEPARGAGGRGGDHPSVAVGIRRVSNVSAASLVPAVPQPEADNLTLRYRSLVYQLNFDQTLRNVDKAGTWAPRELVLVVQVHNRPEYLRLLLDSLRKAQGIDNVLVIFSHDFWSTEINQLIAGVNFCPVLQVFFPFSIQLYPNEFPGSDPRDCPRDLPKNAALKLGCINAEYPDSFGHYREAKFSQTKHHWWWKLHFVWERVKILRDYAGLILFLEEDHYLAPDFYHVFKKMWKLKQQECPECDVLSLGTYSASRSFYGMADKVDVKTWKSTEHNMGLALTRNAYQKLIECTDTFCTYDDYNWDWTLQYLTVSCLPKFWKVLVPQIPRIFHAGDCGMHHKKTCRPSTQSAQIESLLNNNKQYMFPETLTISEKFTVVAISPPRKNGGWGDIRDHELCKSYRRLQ
UniProt Q9BTE3: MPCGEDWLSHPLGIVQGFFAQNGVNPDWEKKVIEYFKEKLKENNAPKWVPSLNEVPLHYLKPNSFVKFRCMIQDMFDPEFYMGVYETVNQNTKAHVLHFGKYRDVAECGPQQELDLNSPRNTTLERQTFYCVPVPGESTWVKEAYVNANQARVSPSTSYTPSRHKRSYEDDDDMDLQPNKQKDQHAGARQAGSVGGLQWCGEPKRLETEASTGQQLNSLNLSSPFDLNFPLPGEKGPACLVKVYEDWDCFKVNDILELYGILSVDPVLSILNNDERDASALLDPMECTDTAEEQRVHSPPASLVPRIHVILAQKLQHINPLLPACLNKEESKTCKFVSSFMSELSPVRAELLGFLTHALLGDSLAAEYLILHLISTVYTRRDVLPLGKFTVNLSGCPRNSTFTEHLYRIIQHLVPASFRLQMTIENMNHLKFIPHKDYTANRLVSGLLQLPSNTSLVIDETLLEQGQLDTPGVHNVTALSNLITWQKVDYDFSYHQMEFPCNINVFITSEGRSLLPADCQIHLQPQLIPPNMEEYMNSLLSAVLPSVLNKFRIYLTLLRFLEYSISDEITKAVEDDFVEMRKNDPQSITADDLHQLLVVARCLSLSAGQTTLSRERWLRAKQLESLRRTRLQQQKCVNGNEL

Compound: CC1Cc2ccccc2N1C(=O)C1CCCN(C1)C(=O)CCl (mixture of isomers) [TRIM25 ligand 11 (diastereomer mixture)]
Experiment: probe-labelled cysteine peptide fold change vs DMSO (competition) (log2 fold change); higher = less target engagement (more negative = stronger competition)
Details: THP-1, incubation time: 4 h
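Further: competitive chemoproteomic profiling in live THP-1 cells with an iodoacetamide desthiobiotin (IA-DTB) probe, comparing probe-labelled peptide intensities in compound-treated cells against DMSO-treated controls.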

In the case of “MELTF_P08582_397_LKPEIQCVSAK (UniProt P08582)”, the “probe-labelled cysteine peptide fold change” value (10 µM) is reported as 0.0877 and the “probe-labelled cysteine peptide fold change” value (50 µM) is reported as -0.00766.
In the case of “METAP1_P53582_202_SCCTSVNEVICHGIPDR (UniProt P53582)”, the “probe-labelled cysteine peptide fold change” value (10 µM) is reported as 0.0679 and the “probe-labelled cysteine peptide fold change” value (50 µM) is reported as -0.0135.
With “MDH1_P40925_154_ENFSCLTR (UniProt P40925)” the “probe-labelled cysteine peptide fold change” value (10 µM) was -0.0906 and the “probe-labelled cysteine peptide fold change” value (50 µM) was -0.113.
For “MDN1_Q9NU22_1400_TTICQVFAALANQK (UniProt Q9NU22)”, the “probe-labelled cysteine peptide fold change” value (10 µM) was 0.156 and the “probe-labelled cysteine peptide fold change” value (50 µM) was 0.0599.
For “MED24_O75448_336_DFTEDVNCAFEFLLK (UniProt O75448)”, the “probe-labelled cysteine peptide fold change” value (10 µM) was 0.119 and the “probe-labelled cysteine peptide fold change” value (50 µM) was 0.0145.
“MCCC2_Q9HCC0_391_KGTHFVQLCCQR (UniProt Q9HCC0)” was tested, and the “probe-labelled cysteine peptide fold change” value (10 µM) was 0.028 and the “probe-labelled cysteine peptide fold change” value (50 µM) was 0.1.
“MBTD1_Q05BQ5_185_VEVPNTDCSLPTK (UniProt Q05BQ5)” was tested, and the “probe-labelled cysteine peptide fold change” value (10 µM) was 0.226 and the “probe-labelled cysteine peptide fold change” value (50 µM) was 0.0407.
“MEMO1_Q9Y316_58_AIIAPHAGYTYCGSCAAHAYK (UniProt Q9Y316)” was tested, and the “probe-labelled cysteine peptide fold change” value (10 µM) was 0.124 and the “probe-labelled cysteine peptide fold change” value (50 µM) was 0.0348.
For “MDN1_Q9NU22_979_FAASNPCGNIQR (UniProt Q9NU22)”, the “probe-labelled cysteine peptide fold change” value (10 µM) was 0.105 and the “probe-labelled cysteine peptide fold change” value (50 µM) was 0.078.
With “MCCC1_Q96RQ3_190_SIMAAAGVPVVEGYHGEDQSDQCLK (UniProt Q96RQ3)” the “probe-labelled cysteine peptide fold change” value (10 µM) was -0.00871 and the “probe-labelled cysteine peptide fold change” value (50 µM) was -0.0916.
With “MED14_O60244_729_TWVAELVFANCPLNGTSTR (UniProt O60244)” the “probe-labelled cysteine peptide fold change” value (10 µM) was -0.376 and the “probe-labelled cysteine peptide fold change” value (50 µM) was -0.228.
For “MDN1_Q9NU22_3263_EELHQLQCEWK (UniProt Q9NU22)”, the “probe-labelled cysteine peptide fold change” value (10 µM) was 0.0646 and the “probe-labelled cysteine peptide fold change” value (50 µM) was 0.0191.
“METAP1_P53582_22+25_LQCPTCIK (UniProt P53582)” was tested, and the “probe-labelled cysteine peptide fold change” value (10 µM) was 0.0271 and the “probe-labelled cysteine peptide fold change” value (50 µM) was -0.0727.
For “MCM6_Q14566_158_THPVHPELVSGTFLCLDCQTVIRDVEQQFK (UniProt Q14566)”, the “probe-labelled cysteine peptide fold change” value (10 µM) was -0.241 and the “probe-labelled cysteine peptide fold change” value (50 µM) was -0.0415.
For “METTL13_Q8N6R0_617_SILTPEGVFILNLVCR (UniProt Q8N6R0)”, the “probe-labelled cysteine peptide fold change” value (10 µM) was -0.0881 and the “probe-labelled cysteine peptide fold change” value (50 µM) was 0.206.
For “MCU_Q8NE86_191_TLVQQLYTTLCIEQHQLNK (UniProt Q8NE86)”, the “probe-labelled cysteine peptide fold change” value (10 µM) was -0.0422 and the “probe-labelled cysteine peptide fold change” value (50 µM) was -0.0422.
In the case of MED27_Q6P2C8_34_VFDCLK (UniProt Q6P2C8), the “probe-labelled cysteine peptide fold change” value (10 µM) is reported as -0.114 and the “probe-labelled cysteine peptide fold change” value (50 µM) is reported as 0.17.
For “MED13L_Q71F56_1919_DWSILLGECSLQTISK (UniProt Q71F56)”, the “probe-labelled cysteine peptide fold change” value (10 µM) was 0.138 and the “probe-labelled cysteine peptide fold change” value (50 µM) was 0.061.
For “MCM3_P25205_319_AILCLLLGGVER (UniProt P25205)”, the “probe-labelled cysteine peptide fold change” value (10 µM) was -0.0958 and the “probe-labelled cysteine peptide fold change” value (50 µM) was 0.126.
In the case of “METTL3_Q86U44_483_EHCLVGVK (UniProt Q86U44)”, the “probe-labelled cysteine peptide fold change” value (10 µM) is reported as 0.0167 and the “probe-labelled cysteine peptide fold change” value (50 µM) is reported as 0.012.
In the case of “MEIOB_Q8N635_424_ISVLSCK (UniProt Q8N635)”, the “probe-labelled cysteine peptide fold change” value (10 µM) is reported as 0.0105 and the “probe-labelled cysteine peptide fold change” value (50 µM) is reported as 0.134.
In the case of “MED23_Q9ULK4_1109_FNEFPNPAAHALHVTCVELMALAVSGK (UniProt Q9ULK4)”, the “probe-labelled cysteine peptide fold change” value (10 µM) is reported as 0.0161 and the “probe-labelled cysteine peptide fold change” value (50 µM) is reported as 0.0357.
With MDN1_Q9NU22_95_LCVSMSK (UniProt Q9NU22) the “probe-labelled cysteine peptide fold change” value (10 µM) was -0.0424 and the “probe-labelled cysteine peptide fold change” value (50 µM) was -0.0583.
“METAP2_P50579_121_VQTDPPSVPICDLYPNGVFPK (UniProt P50579)” was tested, and the “probe-labelled cysteine peptide fold change” value (10 µM) was 0.0815 and the “probe-labelled cysteine peptide fold change” value (50 µM) was -0.0604.
In the case of “MGAT2_Q10469_210_LGCINAEYPDSFGHYR (UniProt Q10469)”, the “probe-labelled cysteine peptide fold change” value (10 µM) is reported as 0.0504 and the “probe-labelled cysteine peptide fold change” value (50 µM) is reported as 0.0641.
With “MGAT2_Q10469_378_IFHAGDCGMHHK (UniProt Q10469)” the “probe-labelled cysteine peptide fold change” value (10 µM) was -0.0585 and the “probe-labelled cysteine peptide fold change” value (50 µM) was -0.21.
For “MED1_Q15648_373_FYAALPGQQHCYFLNK (UniProt Q15648)”, the “probe-labelled cysteine peptide fold change” value (10 µM) was 0.148 and the “probe-labelled cysteine peptide fold change” value (50 µM) was 0.228.
For “MED13L_Q71F56_1457_LGQHKPICK (UniProt Q71F56)”, the “probe-labelled cysteine peptide fold change” value (10 µM) was -0.182 and the “probe-labelled cysteine peptide fold change” value (50 µM) was -0.263.
With “MED17_Q9NVC6_363_QCPEDHLYVLEHNLHLLIR (UniProt Q9NVC6)” the “probe-labelled cysteine peptide fold change” value (10 µM) was -0.0543 and the “probe-labelled cysteine peptide fold change” value (50 µM) was -0.123.
In the case of “MBNL2_Q5VZF2_43_SCQVENGR (UniProt Q5VZF2)”, the “probe-labelled cysteine peptide fold change” value (10 µM) is reported as -0.14 and the “probe-labelled cysteine peptide fold change” value (50 µM) is reported as -0.146.
In the case of “MEMO1_Q9Y316_88_CALSSVDIYR (UniProt Q9Y316)”, the “probe-labelled cysteine peptide fold change” value (10 µM) is reported as 0.0273 and the “probe-labelled cysteine peptide fold change” value (50 µM) is reported as 0.158.
In the case of “MCMBP_Q9BTE3_636_CVNGNEL (UniProt Q9BTE3)”, the “probe-labelled cysteine peptide fold change” value (10 µM) is reported as -0.0361 and the “probe-labelled cysteine peptide fold change” value (50 µM) is reported as -0.134.
In the case of “MCM3_P25205_360_YVLCTAPR (UniProt P25205)”, the “probe-labelled cysteine peptide fold change” value (10 µM) is reported as -0.0719 and the “probe-labelled cysteine peptide fold change” value (50 µM) is reported as -0.0649.
“MCM3AP_O60318_1864_GASAEELLAQCLSSSLLLEK (UniProt O60318)” was tested, and the “probe-labelled cysteine peptide fold change” value (10 µM) was -0.196 and the “probe-labelled cysteine peptide fold change” value (50 µM) was -0.0605.
For “MCM4_P33991_572_QLVLQTGALVLSDNGICCIDEFDK (UniProt P33991)”, the “probe-labelled cysteine peptide fold change” value (10 µM) was 0.0647 and the “probe-labelled cysteine peptide fold change” value (50 µM) was 0.0566.
With “MCL1_Q07820_286_TINQESCIEPLAESITDVLVR (UniProt Q07820)” the “probe-labelled cysteine peptide fold change” value (10 µM) was -0.36 and the “probe-labelled cysteine peptide fold change” value (50 µM) was -0.583.
“METTL13_Q8N6R0_90_ECNATR (UniProt Q8N6R0)” was tested, and the “probe-labelled cysteine peptide fold change” value (10 µM) was 0.0646 and the “probe-labelled cysteine peptide fold change” value (50 µM) was 0.0904.
“METAP2_P50579_380_GVVHDDMECSHYMK (UniProt P50579)” was tested, and the “probe-labelled cysteine peptide fold change” value (10 µM) was -0.21 and the “probe-labelled cysteine peptide fold change” value (50 µM) was -0.365.
In the case of “MDC1_Q14676_128_LRDQELILFADLLCQYHR (UniProt Q14676)”, the “probe-labelled cysteine peptide fold change” value (10 µM) is reported as -0.0684 and the “probe-labelled cysteine peptide fold change” value (50 µM) is reported as 0.148.
